# Measured values from PubChem BioAssay AID1259415 (National Center for Advancing Translational Sciences (NCATS), 2018).
# In all, about 410,000 compounds went through this assay and about 18,000 (4.4%) were called active. Inconclusive results, whose numbers are uncertain, are shown with a selection of clear calls. Cut-off read from the data, not from the text of the source: active = activity change below about -60%; inconclusive = no clear call, values can overlap the other calls; inactive = above about -39%. Some compounds were tested as several samples or in several runs, with calls that do not always agree.
# Assay: qHTS Assay for inhibitors of the human cytomegalovirus (HCMV)
# Settings: HFF cells, HCMV-luciferase reporter, 72 h; at 57.5 µM; stronger effect = lower value
# In short: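 Human foreskin fibroblasts infected with luciferase-reporter HCMV at MOI 1 PFU/cell, compounds at two doses. Luciferase measured 72 h post infection; normalized to buffer-only basal and Salinomycin (10uM) controls.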
# % is set by controls: 0 for no effect and ±100 for the full control effect.
row,Structure (SMILES),"activity change, negative = inhibition"
1,CCOc1ccc(CN2CCN(C(=O)c3cccc4ccccc34)CC2)cc1,inconclusive: -50.3%
2,O=C(/C=C/c1ccc(O)c(O)c1)O[C@@H]1C[C@](O)(C(=O)O)C[C@@H](O)[C@H]1O,active: -60.2%
3,O=C(O)c1ccc(-n2cccn2)c([N+](=O)[O-])c1,inconclusive: -47.2%
4,Cc1ccc(N(CC(=O)NCCSc2ccccn2)S(=O)(=O)c2ccc(F)cc2)cc1,inconclusive: -49.2%
5,COc1cccc(C(=O)Nc2nnc(Cc3ccc(OC)c(OC)c3)s2)c1,inactive: 13.4%
6,CCN(CC)S(=O)(=O)c1cccc(NC(=O)COC(=O)CCC(=O)c2ccc(F)cc2)c1,inconclusive: -43.7%
7,CCOc1ccc(Cc2c(C)[nH]c3ccc(C(=O)O)cc3c2=S)cc1,active: -79.1%
8,CCOc1ccccc1C(=O)NCC(=O)NCCSc1ccc(Br)cc1,inconclusive: -42.8%
9,CCNC(=S)Nc1ccc(Cl)cc1Cl,active: -64.9%
10,CCC(Oc1ccccc1)C(=O)N1CCN(C(=O)C(CC)Oc2ccccc2)CC1 (configuration not stated),inactive: -6.43%
11,COc1ccc(-c2c(-c3ccc(OC)c(C)c3O)n[nH]c2C)cc1,inconclusive: -42.9%
12,CC(=O)Nc1ccc(NC(=O)C(C)OC(=O)c2ccccc2C(=O)c2ccc(Cl)c([N+](=O)[O-])c2)cc1 (configuration not stated),active: -83.7%
13,CCOc1cc(C(=O)Nc2ccccc2F)cc(Br)c1OCC,inconclusive: -47.6%
14,CC(C)CCSc1nc2ccccc2[nH]1,inactive: -11.4%
15,COc1ccc(CNC(=S)NCc2ccc(OC(C)C)cc2)cc1,inconclusive: -44.6%
16,Cc1ccc(C(=O)N/C(=C\c2ccco2)C(=O)NCCCN2CCOCC2)cc1C,inconclusive: -40.9%
17,Cc1sc(NC(=O)COc2cccc(-n3cnnn3)c2)c(C#N)c1C,active: -61.9%
18,CCn1c(=O)c([N+](=O)[O-])c(NCCc2ccc(OC)c(OC)c2)c2ccccc21,active: -71.8%
19,Cc1cccc(NC(=S)NC2CCCCC2)n1,inconclusive: -57%
20,O=C(c1ccccc1)c1ccc(C(=O)N2CCN(c3ccc(F)cc3)CC2)o1,inconclusive: -41%
21,CC(C)c1ccc(-c2nc(C(N)=O)c3c(n2)n(-c2ccc4c(c2)OCO4)c(=O)n3C)cc1,inactive: 15.2%
22,COc1ccc(NC(=O)C2CCN(S(=O)(=O)c3ccc4[nH]c5c(c4c3)CCCCC5)CC2)cc1,inconclusive: 0%

# Exported as tab-separated lines: 4 of the compounds above
row	Structure (SMILES)	activity change, negative = inhibition
5	COc1cccc(C(=O)Nc2nnc(Cc3ccc(OC)c(OC)c3)s2)c1	inactive: 13.4%
7	CCOc1ccc(Cc2c(C)[nH]c3ccc(C(=O)O)cc3c2=S)cc1	active: -79.1%
15	COc1ccc(CNC(=S)NCc2ccc(OC(C)C)cc2)cc1	inconclusive: -44.6%
19	Cc1cccc(NC(=S)NC2CCCCC2)n1	inconclusive: -57%

# Additional records

row,Structure (SMILES),"activity change, negative = inhibition"
1,O=C(O)/C=C/c1cnn(-c2ccccc2)c1,inactive: 3.1%
2,O=C(CSc1nccn1C1CCCC1)Nc1ccc(C(F)(F)F)cc1,active: -62.6%
3,O=C(NCCCCCCCCNC(=O)c1cccc2ccccc12)c1cccc2ccccc12,inconclusive: -57.4%
4,CC(C)CCN1C(=O)c2ccccc2CC1(C)C(=O)NC1CCC(C)CC1 (configuration not stated),inconclusive: -43.8%
5,CCOCCCNC(=O)C(c1ccc(Cl)cc1)N(Cc1cccs1)C(=O)c1ccccn1 (configuration not stated),inactive: -33.3%
6,CC(=O)O[C@H]1CC[C@@]2(C)C(=CC[C@H]3[C@@H]4CC[C@H](C(C)=O)[C@@]4(C)CC[C@@H]32)C1,inactive: 24.5%
7,Nc1ccc(CCNc2ncnc3c2ncn3[C@@H]2O[C@H](CO)[C@@H](O)[C@H]2O)cc1,inconclusive: -50.6%
8,CCc1nc2c(OCCC3CCCCC3)cccn2c1N(C)C(=O)c1ccco1,inconclusive: -49.1%
9,O=S(=O)(NCCNc1ncc(C(F)(F)F)cc1Cl)C(F)(F)F,active: -71.5%
10,Cc1ccc(NC2=NCC(=O)N2Cc2cccs2)cc1C,inactive: 31.9%
11,Cc1ccc(/C=C2\CCCC3=C2NC(=S)NC3c2ccc(C)cc2)cc1 (configuration not stated),inconclusive: -42.9%
12,O=C1NN=C(c2ccc(Br)cc2)CC1c1ccc(Cl)cc1 (configuration not stated),inconclusive: -40.4%
13,CC(C)Nc1nc(-c2cccnc2)nc(-c2ccc(Cl)cc2)c1C#N,inconclusive: -43.3%
14,CCC(=O)Nc1cc(C)c(NC(=O)c2ccco2)cn1,inconclusive: -42%
15,COc1ccccc1NC(=O)CCn1c(=O)sc2ccccc21,inconclusive: -56.4%
16,Cc1c(C(=O)Nc2ccc(S(N)(=O)=O)cc2)oc2ccc(Cl)cc12,inconclusive: -50.5%
17,COc1ccc(C(=O)CSc2nnc(CNc3ccc(F)cc3)o2)cc1,inconclusive: -52.7%
18,CC1(C)C(=O)N(CC(=O)Nc2cccc(F)c2)c2ccc(S(=O)(=O)N3CCCCC3)cc21,inactive: -5.16%
19,COCCOC(=O)C1=C(C)NC2(O)c3ccccc3C(=O)C12O (configuration not stated),inconclusive: -48.3%
20,O=S(OCCN1CCOCC1)C(c1ccccc1)c1ccccc1 (configuration not stated),inactive: 8.08%
21,O/N=C/c1ccccc1Oc1ccccc1,inconclusive: -59.6%
22,Cc1cc(C)cc(N(CCC(=O)O)S(=O)(=O)c2ccc(Cl)cc2)c1,active: -69.2%

row,Structure (SMILES),"activity change, negative = inhibition"
1,CCc1ccc(-n2c(C)cc(/C=N/NC(=O)c3ccncc3)c2C)cc1,active: -79%
2,Nc1nc2c(ncn2[C@@H]2O[C@H](CNS(=O)(=O)c3cccnc3)[C@@H](O)[C@H]2O)c(=O)[nH]1,inactive: 29.8%
3,C=CCOC(Cn1ccnc1)c1ccc(Cl)cc1Cl (configuration not stated),inconclusive: 0%
4,O=C(Cc1ccc(Cl)cc1Cl)Nc1cccc(S(=O)(=O)Nc2ccccc2F)c1,inactive: 9.42%
5,CCN(CC)c1ccc(/C=N/NC(=O)c2c(Cl)c(C)nn2C)cc1,inconclusive: -57.9%
6,Cc1cccc(N2CCN(C(=O)c3cccc(N4CCCC4=O)c3)C(C)C2)c1 (configuration not stated),inconclusive: -44.7%
7,O=C(Cn1cnc2ccccc2c1=O)NCCC(=O)N1CCN(c2ccccc2)CC1,inactive: -2.89%
8,O=C(Nc1ccc(Br)cc1)c1cccc2c1C(=O)N(C1CCCCC1)C2,inactive: 0%
9,Cc1cccc(OCC(=O)N2CCN(C(=O)COc3ccc(Cl)cc3)CC2)c1,inconclusive: -58.7%
10,Cc1ccc(OCC(=O)N/N=C/c2c[nH]c3ccccc23)c([N+](=O)[O-])c1,inactive: -35.6%
11,CCOc1cc(NC(=S)NC)c(OCC)cc1NC(=O)c1ccc(OC)cc1,inconclusive: -43.7%
12,CC(C)=N/N=C1/NC(=O)C(CC(=O)Nc2cc(Cl)ccc2C)S1 (configuration not stated),inconclusive: -40.3%
13,O=C(CN1c2ccccc2Sc2ccccc21)NNC(=S)Nc1ccc(Cl)cc1Cl,inactive: -21%
14,OCCNc1nc(NCc2ccccc2)c2ccccc2n1,inconclusive: -48.4%
15,COCc1cc(C)nc(SCC[N+](C)(C)CC(=O)c2ccccc2)c1C#N,inconclusive: -43.8%
16,COc1ccccc1NS(=O)(=O)c1cc(C(=O)NCC(c2cccs2)N2CCOCC2)ccc1C (configuration not stated),inactive: -26.3%
17,Cc1oc(-c2ccc(C(=O)NCc3ccc(Cl)cc3)cc2)nc1CS(=O)(=O)c1ccccc1,active: -69.1%
18,Cc1nc(N)sc1N=Nc1ccc(Br)cc1,inactive: 124%
19,COc1ccccc1/C=C1/SC(=S)N(C(C)C(=O)NC2C=CS(=O)(=O)C2)C1=O (configuration not stated),inconclusive: -54.5%
20,O=C(O)c1ccc(-n2nnnc2SCc2cccc(Br)c2)cc1,inconclusive: -40.4%
21,Cc1ccccc1-c1noc(-c2ccc(Cl)cc2)n1,inactive: 119%
22,CCCCNC(=O)C(Cc1ccccc1)NS(=O)(=O)c1ccc2c(c1)c(=O)n(C)c(=O)n2C (configuration not stated),inconclusive: -51.3%

row,Structure (SMILES),"activity change, negative = inhibition"
1,COc1cc(CC(=O)OCC(=O)NC2CCCCC2C)cc(OC)c1OC (configuration not stated),inactive: 4.47%
2,Cc1nc2cc(C(F)(F)F)ccc2n1C,inconclusive: -46.6%
3,CCn1ccc(-c2ccccc2)c(C#N)c1=O,inconclusive: -41.7%
4,CC(=O)c1c(C)nn(CC(O)COc2ccc3c(c2)CCC3)c1C (configuration not stated),inconclusive: -41.3%
5,Cc1cccc(N2CCN(C(=O)CN3C(=O)COc4ccc(S(=O)(=O)N5CCCCCC5)cc43)CC2)c1C,active: -73.2%
6,COc1ccc(OC)c(NC(=O)Cn2cc(C(=O)c3ccccc3F)c3ccccc32)c1,inconclusive: -58.7%
7,CCOC(=O)N1CCN(C(=O)c2ccc(CSc3ccc(Cl)cc3)cc2)CC1,active: -71.2%
8,CC(=O)c1ccc(N2CCN(c3ccnc4cc(Cl)ccc34)CC2)cc1,inconclusive: -54.7%
9,COc1ccc(NCC(=O)N/N=C(\C)c2cc3ccccc3o2)cc1,inactive: -0.169%
10,CCCCOc1cccc(C(=O)Nc2cccc(-c3nc4ncccc4o3)c2C)c1,inconclusive: -48.2%
11,O=C(Cc1c(F)cccc1Cl)NNC(=O)c1ccc(Br)s1,inconclusive: -41.9%
12,CN(NS(=O)(=O)c1ccccc1)C(=O)c1ccccc1,active: -99.9%
13,Cc1nnc(NC(=O)CSc2ncnc3scc(-c4ccccc4)c23)s1,inactive: -15.5%
14,CCN(CC)CCN1C(=O)C2C(C(=O)Nc3ccc(C(C)C)cc3)C3C=CC2(O3)C1C(=O)NC1CCCCC1 (configuration not stated),inconclusive: -40.8%
15,O=C1c2cccc3cc([N+](=O)[O-])cc(c23)C(=O)N1c1nncs1,inactive: 9.76%
16,O=C(Nc1cccnc1)c1ccc(S(=O)(=O)c2ccccc2)cc1,inconclusive: -40.1%
17,CCC1(c2ccccc2)NC(=O)N(CC(=O)N(C)Cc2ccccc2)C1=O (configuration not stated),inconclusive: -59.4%
18,Cn1c(=O)c(C(=O)NNC(=O)c2ccccc2Cl)c(O)c2ccccc21,inconclusive: -44.4%
19,O=c1nc2n(Cc3ccccc3)c3ccccc3cc-2c(=O)[nH]1,inconclusive: -41.7%
20,O=C(CSc1nnc(Cc2ccccc2)o1)N1CCOCC1,inconclusive: -45.7%
21,CN1CCN(c2cc(-c3cc(O)c4ncccc4c3)ccn2)CC1,active: -89.2%
